Substitutions are numbered along the chain they refer to. These are yes or no findings as the source states them, for the method shown. Some results given as binding are weak or reduced against the parent protein; the word gives no strength. Values belong to the binder of their own block, whether it stands above or below them.
Molecular target: T1, cynomolgus 4-1BB-His protein (cynomolgus, UniProt A9YYE7 24-186)
T1 construct: Recombinant His-tagged protein; also called cyno 4-1BB antigen; not shown: His tag
T1 sequence: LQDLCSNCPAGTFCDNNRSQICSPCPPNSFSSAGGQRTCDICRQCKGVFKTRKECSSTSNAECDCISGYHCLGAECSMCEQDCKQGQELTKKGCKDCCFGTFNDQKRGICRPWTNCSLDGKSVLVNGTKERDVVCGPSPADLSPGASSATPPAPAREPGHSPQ
Experiment: ELISA, plate coated with cynomolgus 4-1BB-His

B1: B16 chimeric mAb (VHH)
VHH: QVQLVESGGGLVQPGGSLRLSCAASGFTLDYYAIGWFRQAPGKEREGVSCISSSDGSTYYADSVKGRFTISRDNAKNTVYLQMNSLKPEDTAVYYCATDTTTRCPIWSYYVESDYWGQGTQVTVSS
notes: Alpaca VHH tested as 'chimeric mAb'
binding: binds

B3: B125 chimeric mAb (VHH)
VHH: B1 VHH with T28A, L29F, D30S, Y31D
notes: as for B1
binding: binds

B4: B31 chimeric mAb (VHH)
VHH: QVQLVESGGGLVQAGGSLRLSCAASGDIFSIMFWYRQPQGKQREYVAHITSNGRTNYADSVTGRFTISRGNNDNTMYLQMDNLKPQDTAVYYCAADDATNTRTYWGQGTQVTVSS
notes: Alpaca VHH tested as 'chimeric mAb' expressed in 293F cells, purified by protein G, detected with anti-human IgG and captured on Protein A; also called B31 chimeric antibody
binding: binds

The next lines start with the values.

binding: binds
B2: B210 chimeric mAb (VHH)
VHH: B1 VHH with Q1E, F27L, T28S, D55G, G56R, Y59N, V93D, Y109N
notes: as for B1

binding: binds
B5: B164 chimeric mAb (VHH)
VHH: EVQLVESGGGLVQAGGSLRLSCAASGSIFSYMFWYRQPQGKQREYVAHITSGGRTNYADSVTGRFTISRGNNDNTMYLQMNNLKPEDTAVYYCAADDAVYTDRTYWGQGTQVTVSS
notes: as for B1

— patent publication US20240417482A1 (CONCEPT TO MEDICINE BIOTECH, published 2024)
